This experiment has as its target HA-Tat (HIV-1 Tat, HA-tagged) (HIV-1) (UniProt P04608). Put plainly: co-IP; co-immunoprecipitation with HA-Tat, immunoblot for SQSTM1/p62. In general terms: In western blotting, separated proteins are transferred to a membrane and probed.

Sequences of proteins named here, by UniProt entry; tags and fusion partners are left off.
UniProt P04608: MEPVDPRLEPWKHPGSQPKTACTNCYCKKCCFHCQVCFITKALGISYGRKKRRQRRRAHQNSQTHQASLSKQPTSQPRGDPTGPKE

No constants are given. Whether binding was seen depends on the method and setting. In cells and extracts the contact can be indirect. Some entries that bind do so weakly or less than the wild type.

With SQSTM1/p62 (from UniProt Q13501 1-440), the binding result is recorded as “binds”.

The record behind these values is article PMC5988312.
